Measurements reported in patent US20250250357A1.
No constants are given. Whether binding was seen depends on the method and setting. Some results given as binding are weak or reduced against the parent protein; the word gives no strength.

By UniProt entry, the sequences of proteins in these tests, tags left out. Where a name states a change or a piece, a line headed by the entry shows the natural chain unless it says otherwise.
UniProt Q13421: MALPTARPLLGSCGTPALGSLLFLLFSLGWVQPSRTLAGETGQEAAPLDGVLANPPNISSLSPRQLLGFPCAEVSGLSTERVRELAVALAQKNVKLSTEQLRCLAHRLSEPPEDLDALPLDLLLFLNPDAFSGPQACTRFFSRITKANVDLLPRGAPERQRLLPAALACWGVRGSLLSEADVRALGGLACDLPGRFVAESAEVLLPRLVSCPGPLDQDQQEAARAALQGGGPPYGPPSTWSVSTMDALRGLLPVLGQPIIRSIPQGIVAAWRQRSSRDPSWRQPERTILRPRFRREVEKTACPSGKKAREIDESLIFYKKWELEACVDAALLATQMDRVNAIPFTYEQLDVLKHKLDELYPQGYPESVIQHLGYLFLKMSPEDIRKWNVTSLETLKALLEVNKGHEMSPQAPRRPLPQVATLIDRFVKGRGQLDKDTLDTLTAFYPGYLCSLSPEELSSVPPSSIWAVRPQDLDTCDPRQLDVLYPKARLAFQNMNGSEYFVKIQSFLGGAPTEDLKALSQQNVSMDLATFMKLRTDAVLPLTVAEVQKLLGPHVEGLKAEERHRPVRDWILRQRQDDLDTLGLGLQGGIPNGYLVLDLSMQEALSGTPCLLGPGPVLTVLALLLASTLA

Molecular target: human MSLN-R3 protein (ELISA of Example 8) (human) (UniProt Q13421)
Assay: ELISA, coated human MSLN-R3 protein

B1: F3.38.10-L2H3a (scFv, not shown: small tags and cut ends)
scFv: DIVMTQSPDSLAVSLGERATINCRSSQSLIHSDGNTYLQWYQQKPGQSPKLLIYKVSNRFSGVPDRFSGSGSGTDFTLTISSLQAEDVAVYYCSQTTHVPFTFGQGTKLEIKGGGGSGGGGSGGGGSEVQLVQSGAEVKKPGASVKVSCKASGYIFTDYYMNWVRQAPGQRLEWMGVINPKQGVISHNQKFKGRVTITVDKSANTAYMELSSLRSEDTAVYYCANYGSRFYAMDYWGQGTTVTVSS
  binding: binds
